In article doi:10.1101/2020.03.20.999888 (bioRxiv, 2020):
These are yes or no findings as the source states them, for the method shown. For some assays here: In cells and extracts the contact can be indirect. Some entries that bind do so weakly or less than the wild type. For some assays here: Where a sequence is shown, tags or fusion partners need not be part of it.

Assays:
[1] = target: GspM^peri (P. aeruginosa) (UniProt P25061); assay: SEC-MALS
[2] = target: T1, GspM (P. aeruginosa) (UniProt P25061); assay: pull-down + SEC
T1 sequence: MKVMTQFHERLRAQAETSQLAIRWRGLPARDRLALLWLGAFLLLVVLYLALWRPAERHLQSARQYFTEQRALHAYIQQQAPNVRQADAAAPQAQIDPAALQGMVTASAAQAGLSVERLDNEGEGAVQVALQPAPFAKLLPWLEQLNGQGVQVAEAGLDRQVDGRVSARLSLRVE

[3] = target: T2, GspE, biotinylated (C-terminal AVI-tag) (P. aeruginosa) (UniProt Q00512); assay: BLI
T2 sequence (chain, biotin (in vivo biotinylated by co-expressed E. coli BirA)): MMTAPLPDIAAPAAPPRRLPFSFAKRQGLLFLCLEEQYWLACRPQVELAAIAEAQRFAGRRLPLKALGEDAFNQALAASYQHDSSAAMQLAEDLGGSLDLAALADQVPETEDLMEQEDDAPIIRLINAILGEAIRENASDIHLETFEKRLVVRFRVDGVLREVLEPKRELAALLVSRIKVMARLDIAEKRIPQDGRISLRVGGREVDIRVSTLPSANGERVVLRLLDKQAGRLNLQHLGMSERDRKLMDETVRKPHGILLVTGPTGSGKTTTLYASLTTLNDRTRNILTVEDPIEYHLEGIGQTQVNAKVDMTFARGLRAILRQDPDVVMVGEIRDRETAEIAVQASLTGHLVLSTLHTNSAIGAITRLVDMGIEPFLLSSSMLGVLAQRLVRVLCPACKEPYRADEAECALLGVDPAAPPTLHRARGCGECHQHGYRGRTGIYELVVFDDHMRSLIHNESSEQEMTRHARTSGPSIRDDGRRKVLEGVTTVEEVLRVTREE

[4] = target: T3, GspL^cyto, biotinylated (C-terminal AVI-tag) (P. aeruginosa) (UniProt P25060); assay: BLI
T3 sequence (chain, biotin (in vivo biotinylated by co-expressed E. coli BirA)): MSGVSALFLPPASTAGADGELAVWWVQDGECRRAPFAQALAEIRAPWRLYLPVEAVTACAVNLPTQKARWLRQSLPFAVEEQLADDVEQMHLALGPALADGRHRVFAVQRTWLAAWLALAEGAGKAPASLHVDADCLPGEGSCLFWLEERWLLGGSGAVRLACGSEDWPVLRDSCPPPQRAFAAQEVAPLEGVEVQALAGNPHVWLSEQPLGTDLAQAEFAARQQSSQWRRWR

[5] = target: GspL^cyto (P. aeruginosa) (UniProt P25060); assay: SEC-MALS

## GspM^peri (from UniProt P25061 53-174) (domain or fragment)
[1]
  binding: no binding (tested: 0.5-1.5 mg/ml)

B1: GspL (natural protein)
chain: MSGVSALFLPPASTAGADGELAVWWVQDGECRRAPFAQALAEIRAPWRLYLPVEAVTACAVNLPTQKARWLRQSLPFAVEEQLADDVEQMHLALGPALADGRHRVFAVQRTWLAAWLALAEGAGKAPASLHVDADCLPGEGSCLFWLEERWLLGGSGAVRLACGSEDWPVLRDSCPPPQRAFAAQEVAPLEGVEVQALAGNPHVWLSEQPLGTDLAQAEFAARQQSSQWRRWRPLLGLVGLWLVLQWGFTLVQAWQLQREGDRYAAQSAELYRQLFPEDRKLINLRAQFDQHLADSASSGGEGQLLGLLGQAATVIGGEPTVSVEQLDFSAARGDVALQVRAPGFDVLERLRSRLSESGLAVQLGSASRDGSTVSARLVIGG
[2]
  binding: binds

B2: GspLM complex (complex, UniProt P25060;P25061)
chain 1: B1 chain
chain 2: T1 sequence
[3]
  binding: binds

B3: recombinant GspE (enzyme, UniProt Q00512 1-502)
chain: T2 sequence (chain, biotin (in vivo biotinylated by co-expressed E. coli BirA))
[4]
  binding: binds

B4: GspL^cyto (domain or fragment, UniProt P25060 1-233)
chain: T3 sequence (chain, biotin (in vivo biotinylated by co-expressed E. coli BirA))
[5]
  binding: no binding (tested: 0.5-1.5 mg/ml)
